Literature values, collected in patent US10702537B2, “Devices and methods of treating methamphetamine addiction and medical and behavioral consequences of methamphetamine use and of HIV infection” (Board of Supervisors of Louisiana State University and …, priority 2015, dated 2020).

Details: humans; cited from earlier work

SMILES: O=C1Nc2ccc(Cl)cc2C(c2ccccc2)=NC1O (stereo not shown) [oxazepam, 7-chloro-1,3-dihydro-3-hydroxy-5-phenyl-2H-1,4-benzodiazepin-2-one]
- rate of absorption compared to alprazolam: more slowly absorbed
